{"sequences": {"note": "Protein sequences, listed by entry. Tags and fused reporters are not part of them. Residues count along the entry.", "UniProt A0A0P0XCU3, residues 50-1875": "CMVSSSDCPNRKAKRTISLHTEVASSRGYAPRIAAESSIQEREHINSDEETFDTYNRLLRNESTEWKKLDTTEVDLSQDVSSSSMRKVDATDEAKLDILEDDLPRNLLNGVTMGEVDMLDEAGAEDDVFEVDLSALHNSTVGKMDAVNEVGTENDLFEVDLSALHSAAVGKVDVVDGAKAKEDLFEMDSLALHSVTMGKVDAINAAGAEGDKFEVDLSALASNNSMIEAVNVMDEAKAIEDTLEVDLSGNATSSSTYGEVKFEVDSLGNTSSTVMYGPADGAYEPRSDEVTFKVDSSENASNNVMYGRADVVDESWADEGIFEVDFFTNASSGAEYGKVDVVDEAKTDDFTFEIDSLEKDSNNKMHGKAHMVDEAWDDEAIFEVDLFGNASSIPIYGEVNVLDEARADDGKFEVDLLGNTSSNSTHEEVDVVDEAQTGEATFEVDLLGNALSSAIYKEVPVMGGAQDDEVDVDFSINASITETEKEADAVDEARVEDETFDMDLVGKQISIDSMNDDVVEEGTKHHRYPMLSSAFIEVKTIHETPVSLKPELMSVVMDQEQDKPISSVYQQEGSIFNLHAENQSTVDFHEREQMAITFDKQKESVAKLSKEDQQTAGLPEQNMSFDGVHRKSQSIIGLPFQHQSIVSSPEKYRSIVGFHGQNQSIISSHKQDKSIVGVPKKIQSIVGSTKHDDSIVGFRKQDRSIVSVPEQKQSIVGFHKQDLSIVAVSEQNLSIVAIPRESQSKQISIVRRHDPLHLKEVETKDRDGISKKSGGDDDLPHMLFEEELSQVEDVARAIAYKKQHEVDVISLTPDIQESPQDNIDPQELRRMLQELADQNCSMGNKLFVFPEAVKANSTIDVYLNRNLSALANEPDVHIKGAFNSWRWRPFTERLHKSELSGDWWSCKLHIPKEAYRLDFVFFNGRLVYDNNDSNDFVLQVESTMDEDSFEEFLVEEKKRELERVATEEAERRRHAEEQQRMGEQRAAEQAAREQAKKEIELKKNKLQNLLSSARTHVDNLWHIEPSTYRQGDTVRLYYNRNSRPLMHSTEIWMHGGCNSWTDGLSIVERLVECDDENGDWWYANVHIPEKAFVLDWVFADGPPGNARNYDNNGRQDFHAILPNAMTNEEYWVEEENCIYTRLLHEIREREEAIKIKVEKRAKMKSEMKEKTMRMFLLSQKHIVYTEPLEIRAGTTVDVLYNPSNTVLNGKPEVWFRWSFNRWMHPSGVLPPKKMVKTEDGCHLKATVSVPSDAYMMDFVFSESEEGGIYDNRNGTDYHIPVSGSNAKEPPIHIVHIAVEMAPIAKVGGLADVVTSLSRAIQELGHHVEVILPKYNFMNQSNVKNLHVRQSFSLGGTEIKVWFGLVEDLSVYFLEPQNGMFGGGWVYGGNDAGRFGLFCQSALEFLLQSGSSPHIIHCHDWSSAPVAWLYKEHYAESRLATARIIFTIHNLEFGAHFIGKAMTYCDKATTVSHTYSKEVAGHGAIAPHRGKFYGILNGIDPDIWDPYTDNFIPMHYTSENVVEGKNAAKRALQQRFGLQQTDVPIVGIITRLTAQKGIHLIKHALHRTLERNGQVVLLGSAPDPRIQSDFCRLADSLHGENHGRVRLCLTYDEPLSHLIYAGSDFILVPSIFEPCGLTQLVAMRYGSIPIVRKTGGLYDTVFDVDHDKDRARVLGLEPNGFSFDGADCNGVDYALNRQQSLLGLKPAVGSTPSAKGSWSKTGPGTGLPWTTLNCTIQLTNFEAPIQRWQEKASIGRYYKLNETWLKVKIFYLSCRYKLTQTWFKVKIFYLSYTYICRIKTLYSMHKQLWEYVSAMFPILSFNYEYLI"}, "source": "paper PMC9501056", "key": {"[1]": {"target": "T1, BEI (Oryza sativa subsp. indica cv. IR36 (endogenous in developing seeds)) (UniProt Q01401)", "T1 sequence": "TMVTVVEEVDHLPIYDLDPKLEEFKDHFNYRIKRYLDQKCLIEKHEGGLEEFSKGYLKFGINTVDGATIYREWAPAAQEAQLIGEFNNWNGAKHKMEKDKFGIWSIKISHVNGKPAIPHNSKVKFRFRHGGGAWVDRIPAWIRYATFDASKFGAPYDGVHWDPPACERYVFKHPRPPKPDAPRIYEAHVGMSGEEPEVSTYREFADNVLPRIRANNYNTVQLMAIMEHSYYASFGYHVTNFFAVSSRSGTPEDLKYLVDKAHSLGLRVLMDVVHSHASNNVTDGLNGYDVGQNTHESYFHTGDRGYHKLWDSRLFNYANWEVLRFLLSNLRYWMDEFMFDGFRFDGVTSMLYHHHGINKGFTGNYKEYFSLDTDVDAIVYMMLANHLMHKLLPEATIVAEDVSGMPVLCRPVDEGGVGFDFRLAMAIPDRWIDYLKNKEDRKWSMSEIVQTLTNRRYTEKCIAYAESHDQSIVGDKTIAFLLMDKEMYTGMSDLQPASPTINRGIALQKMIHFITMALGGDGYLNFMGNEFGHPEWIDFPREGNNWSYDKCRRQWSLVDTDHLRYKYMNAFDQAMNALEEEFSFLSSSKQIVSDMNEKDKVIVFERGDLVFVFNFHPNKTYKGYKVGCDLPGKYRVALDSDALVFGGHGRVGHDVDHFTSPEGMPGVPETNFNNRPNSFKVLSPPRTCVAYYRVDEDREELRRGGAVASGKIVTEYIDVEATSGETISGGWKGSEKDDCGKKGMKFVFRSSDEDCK", "assay": "co-IP; soluble proteins of developing seeds of the be2b mutant at 15 DAF incubated with isozyme-specific antibodies and protein A magnetic beads; washed with PBS pH 7.4; Western blotting"}, "[2]": {"target": "T2, SSI (Oryza sativa subsp. indica cv. IR36 (endogenous in developing seeds)) (UniProt A2Y9M4)", "T2 sequence": "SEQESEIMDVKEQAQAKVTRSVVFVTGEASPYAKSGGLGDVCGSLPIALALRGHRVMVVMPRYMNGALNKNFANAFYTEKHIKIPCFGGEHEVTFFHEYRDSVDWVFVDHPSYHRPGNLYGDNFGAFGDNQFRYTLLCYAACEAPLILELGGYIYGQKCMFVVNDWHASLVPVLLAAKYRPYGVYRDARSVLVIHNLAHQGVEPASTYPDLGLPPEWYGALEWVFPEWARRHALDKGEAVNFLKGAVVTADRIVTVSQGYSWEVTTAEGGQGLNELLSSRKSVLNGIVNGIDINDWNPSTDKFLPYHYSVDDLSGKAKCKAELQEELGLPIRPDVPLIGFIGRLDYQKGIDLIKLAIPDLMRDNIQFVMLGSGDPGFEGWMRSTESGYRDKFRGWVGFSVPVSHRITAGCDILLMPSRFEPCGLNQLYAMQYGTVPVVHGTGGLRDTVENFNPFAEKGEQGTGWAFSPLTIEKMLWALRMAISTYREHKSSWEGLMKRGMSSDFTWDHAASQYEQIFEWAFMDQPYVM", "assay": "co-IP; soluble proteins of developing seeds of the be2b mutant at 15 DAF incubated with isozyme-specific antibodies and protein A magnetic beads; washed with PBS pH 7.4; Western blotting"}, "[3]": {"target": "T3, SSIIa (Oryza sativa subsp. indica cv. IR36 (endogenous in developing seeds)) (UniProt P0C586)", "T3 sequence": "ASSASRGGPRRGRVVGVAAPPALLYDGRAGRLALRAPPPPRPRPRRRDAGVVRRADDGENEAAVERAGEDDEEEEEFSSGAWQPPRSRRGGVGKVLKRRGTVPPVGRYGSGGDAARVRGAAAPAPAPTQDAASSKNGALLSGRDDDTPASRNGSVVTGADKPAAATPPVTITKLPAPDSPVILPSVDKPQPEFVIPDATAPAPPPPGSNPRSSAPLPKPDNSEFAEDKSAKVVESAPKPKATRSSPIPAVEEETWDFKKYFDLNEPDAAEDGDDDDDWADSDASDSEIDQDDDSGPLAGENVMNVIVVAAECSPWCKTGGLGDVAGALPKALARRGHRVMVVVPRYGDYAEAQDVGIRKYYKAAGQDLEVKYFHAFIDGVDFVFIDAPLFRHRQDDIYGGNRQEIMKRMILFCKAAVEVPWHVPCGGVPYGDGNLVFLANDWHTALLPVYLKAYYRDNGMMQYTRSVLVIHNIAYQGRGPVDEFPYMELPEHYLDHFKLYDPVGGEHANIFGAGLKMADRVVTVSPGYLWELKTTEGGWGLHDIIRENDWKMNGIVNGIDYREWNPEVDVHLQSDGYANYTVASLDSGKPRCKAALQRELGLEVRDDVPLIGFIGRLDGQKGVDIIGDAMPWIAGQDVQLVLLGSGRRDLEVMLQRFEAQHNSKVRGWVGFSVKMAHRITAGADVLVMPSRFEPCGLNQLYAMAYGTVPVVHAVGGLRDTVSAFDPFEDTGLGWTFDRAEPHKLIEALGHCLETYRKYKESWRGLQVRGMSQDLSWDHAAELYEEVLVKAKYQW", "assay": "co-IP; soluble proteins of developing seeds of WT (IR36) at 10 DAF incubated with isozyme-specific antibodies and protein A magnetic beads; washed with PBS pH 7.4; Western blotting"}, "[4]": {"target": "T2, SSI (Oryza sativa subsp. indica cv. IR36 (endogenous in developing seeds))", "assay": "co-IP; soluble proteins of developing seeds of WT (IR36) at 10 DAF incubated with isozyme-specific antibodies and protein A magnetic beads; washed with PBS pH 7.4; Western blotting"}, "[5]": {"target": "T1, BEI (Oryza sativa subsp. indica cv. IR36 (endogenous in developing seeds))", "assay": "co-IP; soluble proteins of developing seeds of the be2b mutant at 5 DAF incubated with isozyme-specific antibodies and protein A magnetic beads; washed with PBS pH 7.4; Western blotting"}, "[6]": {"target": "T3, SSIIa (Oryza sativa subsp. indica cv. IR36 (endogenous in developing seeds))", "assay": "co-IP; soluble proteins of developing seeds of the be2b mutant at 10 DAF incubated with isozyme-specific antibodies and protein A magnetic beads; washed with PBS pH 7.4; Western blotting"}, "[7]": {"target": "T2, SSI (Oryza sativa subsp. indica cv. IR36 (endogenous in developing seeds))", "assay": "co-IP; soluble proteins of developing seeds of the be2b mutant at 10 DAF incubated with isozyme-specific antibodies and protein A magnetic beads; washed with PBS pH 7.4; Western blotting"}, "[8]": {"target": "T1, BEI (Oryza sativa subsp. indica cv. IR36 (endogenous in developing seeds))", "assay": "co-IP; soluble proteins of developing seeds of WT (IR36) at 15 DAF incubated with isozyme-specific antibodies and protein A magnetic beads; washed with PBS pH 7.4; Western blotting"}}, "note": "Results are given in words; binding and its absence hold for the method and conditions named. Binding seen in cells or lysates may run through a third protein. Some entries that bind do so weakly or less than the wild type.", "data": [{"substance": "SSIIIa (from UniProt A0A0P0XCU3 50-1875) (enzyme)", "values": [{"measurement": "binding", "setting": "[1]", "value": "binds weakly"}, {"measurement": "binding", "setting": "[2]", "value": "binds weakly"}, {"measurement": "binding", "setting": "[3]", "value": "binds"}, {"measurement": "binding", "setting": "[4]", "value": "binds weakly"}, {"measurement": "binding", "setting": "[5]", "value": "binds weakly"}, {"measurement": "binding", "setting": "[6]", "value": "binds weakly"}, {"measurement": "binding", "setting": "[7]", "value": "binds weakly"}, {"measurement": "binding", "setting": "[8]", "value": "binds weakly"}]}]}
